Assay results as given in ChEMBL document CHEMBL4316593 (Eur J Med Chem, 2019).
The source gives many values for each of these; only a part stands here.

Legend:
Format in all cases: cell-based
Settings in all cases: U-87MG ATCC
[1] = Inhibition of RTK/PI3K/AKT/mTOR signaling in human U87 cells assessed as down regulation of CORO2B gene expression at cytotoxic IC50 measured after 48 hrs relative to control
[2] = Inhibition of RTK/PI3K/AKT/mTOR signaling in human U87 cells assessed as down regulation of HIST1H2AC gene expression at cytotoxic IC50 measured after 48 hrs relative to control
[3] = Inhibition of RTK/PI3K/AKT/mTOR signaling in human U87 cells assessed as down regulation of MCM6 gene expression at cytotoxic IC50 measured after 48 hrs relative to control
[4] = Inhibition of RTK/PI3K/AKT/mTOR signaling in human U87 cells assessed as down regulation of EPC1 gene expression at cytotoxic IC50 measured after 48 hrs relative to control
[5] = Inhibition of RTK/PI3K/AKT/mTOR signaling in human U87 cells assessed as down regulation of ATXN1L gene expression at cytotoxic IC50 measured after 48 hrs relative to control
[6] = Inhibition of RTK/PI3K/AKT/mTOR signaling in human U87 cells assessed as down regulation of CAPN7 gene expression at cytotoxic IC50 measured after 48 hrs relative to control
[7] = Inhibition of RTK/PI3K/AKT/mTOR signaling in human U87 cells assessed as down regulation of MED8 gene expression at cytotoxic IC50 measured after 48 hrs relative to control
[8] = Inhibition of RTK/PI3K/AKT/mTOR signaling in human U87 cells assessed as down regulation of ABI1 gene expression at cytotoxic IC50 measured after 48 hrs relative to control
[9] = Inhibition of RTK/PI3K/AKT/mTOR signaling in human U87 cells assessed as down regulation of PGD gene expression at cytotoxic IC50 measured after 48 hrs relative to control
[10] = Inhibition of RTK/PI3K/AKT/mTOR signaling in human U87 cells assessed as down regulation of KREMEN1 gene expression at cytotoxic IC50 measured after 48 hrs relative to control
[11] = Inhibition of RTK/PI3K/AKT/mTOR signaling in human U87 cells assessed as down regulation of CMTM6 gene expression at cytotoxic IC50 measured after 48 hrs relative to control
[12] = Inhibition of RTK/PI3K/AKT/mTOR signaling in human U87 cells assessed as down regulation of CSNK1A1 gene expression at cytotoxic IC50 measured after 48 hrs relative to control
[13] = Inhibition of RTK/PI3K/AKT/mTOR signaling in human U87 cells assessed as down regulation of MAGEB2 gene expression at cytotoxic IC50 measured after 48 hrs relative to control
[14] = Inhibition of RTK/PI3K/AKT/mTOR signaling in human U87 cells assessed as down regulation of ACADVL gene expression at cytotoxic IC50 measured after 48 hrs relative to control
[15] = Inhibition of RTK/PI3K/AKT/mTOR signaling in human U87 cells assessed as up regulation of LINC01694 gene expression at cytotoxic IC50 measured after 48 hrs relative to control
[16] = Inhibition of RTK/PI3K/AKT/mTOR signaling in human U87 cells assessed as up regulation of USH1G gene expression at cytotoxic IC50 measured after 48 hrs relative to control
[17] = Inhibition of RTK/PI3K/AKT/mTOR signaling in human U87 cells assessed as up regulation of SERPINF2 gene expression at cytotoxic IC50 measured after 48 hrs relative to control
[18] = Inhibition of RTK/PI3K/AKT/mTOR signaling in human U87 cells assessed as up regulation of ENO1 gene expression at cytotoxic IC50 measured after 48 hrs relative to control
[19] = Inhibition of RTK/PI3K/AKT/mTOR signaling in human U87 cells assessed as up regulation of protein tyrosine phosphatase, receptor type F gene expression at cytotoxic IC50 measured after 48 hrs relative to control
[20] = Inhibition of RTK/PI3K/AKT/mTOR signaling in human U87 cells assessed as up regulation of NGFI-A binding protein 2 gene expression at cytotoxic IC50 measured after 48 hrs relative to control
[21] = Inhibition of RTK/PI3K/AKT/mTOR signaling in human U87 cells assessed as up regulation of arginase 2 gene expression at cytotoxic IC50 measured after 48 hrs relative to control
[22] = Inhibition of RTK/PI3K/AKT/mTOR signaling in human U87 cells assessed as up regulation of leptin receptor overlapping transcript gene expression at cytotoxic IC50 measured after 48 hrs relative to control
[23] = Inhibition of RTK/PI3K/AKT/mTOR signaling in human U87 cells assessed as up regulation of MOB kinase activator 3A gene expression at cytotoxic IC50 measured after 48 hrs relative to control
[24] = Inhibition of RTK/PI3K/AKT/mTOR signaling in human U87 cells assessed as up regulation of FERM domain containing 5 gene expression at cytotoxic IC50 measured after 48 hrs relative to control
[25] = Inhibition of RTK/PI3K/AKT/mTOR signaling in human U87 cells assessed as up regulation of glutamate ionotropic receptor NMDA type subunit 2D gene expression at cytotoxic IC50 measured after 48 hrs relative to control
[26] = Inhibition of RTK/PI3K/AKT/mTOR signaling in human U87 cells assessed as up regulation of Meis homeobox 3 gene expression at cytotoxic IC50 measured after 48 hrs relative to control
[27] = Inhibition of RTK/PI3K/AKT/mTOR signaling in human U87 cells assessed as up regulation of erb-b2 receptor tyrosine kinase 3 gene expression at cytotoxic IC50 measured after 48 hrs relative to control
[28] = Inhibition of RTK/PI3K/AKT/mTOR signaling in human U87 cells assessed as up regulation of TRAF3 gene expression at cytotoxic IC50 measured after 48 hrs relative to control
[29] = Inhibition of RTK/PI3K/AKT/mTOR signaling in human U87 cells assessed as up regulation of CNOT2 gene expression at cytotoxic IC50 measured after 48 hrs relative to control
[30] = Inhibition of RTK/PI3K/AKT/mTOR signaling in human U87 cells assessed as up regulation of MARCKSL1 gene expression at cytotoxic IC50 measured after 48 hrs relative to control
[31] = Inhibition of RTK/PI3K/AKT/mTOR signaling in human U87 cells assessed as up regulation of TOP1MT gene expression at cytotoxic IC50 measured after 48 hrs relative to control
[32] = Inhibition of RTK/PI3K/AKT/mTOR signaling in human U87 cells assessed as up regulation of ANXA6 gene expression at cytotoxic IC50 measured after 48 hrs relative to control

SMILES: CC(=O)C(=NNc1ccccc1C#N)C(C)=O
- log2FC [1]: -2.13
- log2FC [2]: -1.45
- log2FC [3]: -1.18
- log2FC [4]: -1
- log2FC [5]: -0.972
- log2FC [6]: -0.829
- log2FC [7]: -0.647
- log2FC [8]: -0.628
- log2FC [9]: -0.625
- log2FC [10]: -0.604
- log2FC [11]: -0.585
- log2FC [12]: -0.571
- log2FC [13]: -0.469
- log2FC [14]: -0.444
- log2FC [15]: 3.72
- log2FC [16]: 2.27
- log2FC [17]: 2.22
- log2FC [18]: 1.91
- log2FC [19]: 1.4
- log2FC [20]: 1.35
- log2FC [21]: 1.09
- log2FC [22]: 1.08
- log2FC [23]: 0.982
- log2FC [24]: 0.759
- log2FC [25]: 0.72
- log2FC [26]: 0.704
- log2FC [27]: 0.699
- log2FC [28]: 0.64
- log2FC [29]: 0.602
- log2FC [30]: 0.553
- log2FC [31]: 0.543
- log2FC [32]: 0.466
